Reference: patent US5273992A, “Method for reducing sickle erythrocyte dehydration and delaying the occurrence of erythrocyte sickling in-situ” (Beth Israel Hospital Assoc. Inc., priority 1992, dated 1993)
“Also recorded” adds a separate entry of the source.

Tests used:
[1] = target: T1, Ca^2+-activated K+ channel (Gardos channel) of sickle erythrocytes (Homo sapiens, UniProt O15554); assay: Ca^2+-activated ^86Rb influx in sickle (SS) erythrocytes; assay type: cell-based
T1 construct: Blood was collected after obtaining informed consent from patients; endogenous in cells; host or cells: erythrocytes (SS) from patients homozygous for Hb S
Method: Patients homozygous for Hb S disease were selected. Blood was collected after obtaining informed consent from patients followed in the Hematology Division Clinic at Brigham and Women's Hospital and in the Boston Comprehensive Sickle Cell Center at Boston City Hospital. None of the patients had been transfused in the preceding 120 days.
Other experiments were carried out in normal saline (140 mM NaCl, 2 mM KCl, 10 mM tris-HCl, pH 8.0). At the end of the incubation, triplicate samples of each cell suspension were spun at 3,000 g for 10 min. The supernatant was then removed and a smaller volume of medium containing A23187 (60 μM CaCl2, and ^86 Rb was added to achieve a final Hct of 4-5%. Aliquots of cell suspension were taken at specified times (1, 3, and 5 min) and spun through 0.8 ml of medium with 5 mM EGTA and a 0.4 ml cushion of butyl-phthalate. The resultant supernatant and the upper layer of oil were carefully removed, the tube contents frozen at -80° C. and the tube tip containing the cell pellet cut off and counted.

[2] = tested on: Gardos pathway in normal AA cells; details: read-out: IC50 obtained with a different method in normal AA cells; cited from earlier work

Row | SMILES | Sequence / rank of inhibitory potency on the Gardos pathway [1] | IC50 [2] [µM]
1 | Clc1ccc(COC(Cn2ccnc2)c2ccc(Cl)cc2Cl)cc1 (stereo not shown) [Econazole, 1-[2-[(4-chlorophenyl)methoxyl]-2-(2,14-dichlorophenyl)ethyl]-1H-imidacole] | clotrimazole>miconazole>econazole>metronidazole | 1.8
2 | Clc1ccc(COC(Cn2ccnc2)c2ccc(Cl)cc2Cl)c(Cl)c1 (stereo not shown) [Miconazole] | second most potent inhibitor; also recorded: clotrimazole>miconazole>econazole>metronidazole | 1.5
